Data reported in ChEMBL document CHEMBL6092145, “Recent advances in the design of small molecular drugs with acrylamides covalent warheads” (Bioorg Med Chem, 2024).

Target: T1, Tyrosine-protein kinase JAK3 (Homo sapiens, UniProt P52333)
T1 sequence (P52333 whole entry): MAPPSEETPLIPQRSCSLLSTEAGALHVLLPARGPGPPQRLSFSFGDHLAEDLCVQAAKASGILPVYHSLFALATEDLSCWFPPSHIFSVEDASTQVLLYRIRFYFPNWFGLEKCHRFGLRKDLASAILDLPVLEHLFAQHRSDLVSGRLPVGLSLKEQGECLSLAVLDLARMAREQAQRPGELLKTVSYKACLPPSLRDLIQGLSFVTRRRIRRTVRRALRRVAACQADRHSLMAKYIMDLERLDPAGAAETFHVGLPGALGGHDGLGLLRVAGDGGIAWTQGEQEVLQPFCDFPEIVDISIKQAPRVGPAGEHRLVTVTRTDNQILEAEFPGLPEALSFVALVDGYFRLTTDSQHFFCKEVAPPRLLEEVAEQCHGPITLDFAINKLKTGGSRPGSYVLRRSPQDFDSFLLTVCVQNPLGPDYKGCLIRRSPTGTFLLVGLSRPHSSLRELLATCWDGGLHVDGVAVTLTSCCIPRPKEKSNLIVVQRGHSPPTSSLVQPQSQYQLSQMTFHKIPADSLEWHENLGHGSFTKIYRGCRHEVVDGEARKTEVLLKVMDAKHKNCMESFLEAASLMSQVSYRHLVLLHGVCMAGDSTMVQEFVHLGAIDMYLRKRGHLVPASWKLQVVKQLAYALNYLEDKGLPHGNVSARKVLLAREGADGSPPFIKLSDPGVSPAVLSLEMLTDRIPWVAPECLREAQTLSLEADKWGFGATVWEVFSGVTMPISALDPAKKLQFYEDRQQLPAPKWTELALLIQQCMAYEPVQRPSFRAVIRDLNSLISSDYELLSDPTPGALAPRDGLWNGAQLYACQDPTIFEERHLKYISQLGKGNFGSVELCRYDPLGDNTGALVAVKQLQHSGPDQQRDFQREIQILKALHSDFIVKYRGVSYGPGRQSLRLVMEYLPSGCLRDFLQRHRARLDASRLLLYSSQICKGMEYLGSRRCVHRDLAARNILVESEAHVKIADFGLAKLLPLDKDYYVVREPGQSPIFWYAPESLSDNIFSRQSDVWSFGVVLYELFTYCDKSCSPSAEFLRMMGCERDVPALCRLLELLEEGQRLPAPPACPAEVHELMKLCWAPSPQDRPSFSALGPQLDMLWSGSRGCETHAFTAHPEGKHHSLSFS
Experiment: biochemical
Format: cell-based, Sf9

- IC50: 0.15 nM
Compound: CN(C)C(=O)/C(C#N)=C/c1ccc(-c2nc3cnc4[nH]ccc4c3n2C2CCCCC2)o1
